Test results: patent US8183211B2, “Pharmaceutical compositions for inhibiting intestinal permeability” (University of Maryland, Baltimore, priority 2000, dated 2012)
Ends that are not written are not given here.

Tested on: intraluminal zonulin
Experiment: Intraluminal zonulin by sandwich ELISA of intestinal lavage
Type: in vivo, rat

## GGVLVQPG [FZI/0, synthetic octapeptide corresponding to amino acid residues 8-15 of human fetal zonulini]
Treated diabetic-prone rats
  intraluminal zonulin, treated rats that developed diabetes versus treated rats that did not: 3 fold
Versus untreated controls
  intraluminal zonulin levels of treated rats that did not develop diabetes: comparable with the untreated controls
